Experiment [1] concerns the target T1, DmMon1-ΔN (residues 101-528) (Drosophila melanogaster) (UniProt Q9VR38).
T1 sequence: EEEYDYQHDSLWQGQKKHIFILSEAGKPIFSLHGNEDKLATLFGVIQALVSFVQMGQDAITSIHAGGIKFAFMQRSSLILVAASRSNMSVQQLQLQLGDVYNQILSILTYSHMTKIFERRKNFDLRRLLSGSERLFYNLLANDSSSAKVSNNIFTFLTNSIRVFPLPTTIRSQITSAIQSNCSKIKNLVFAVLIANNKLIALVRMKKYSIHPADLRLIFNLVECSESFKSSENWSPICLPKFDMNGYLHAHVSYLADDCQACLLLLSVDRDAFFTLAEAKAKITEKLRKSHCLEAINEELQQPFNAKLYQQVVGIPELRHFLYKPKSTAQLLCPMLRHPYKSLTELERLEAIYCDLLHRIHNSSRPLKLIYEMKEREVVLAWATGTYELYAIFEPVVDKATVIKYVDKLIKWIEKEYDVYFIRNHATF
As to the kind of experiment: cryo-EM structure; purified Mon1(101-528)-Ccz1-Bulli complex, plunge frozen on CF-1.2/1.3-3 Cu-50 grids; consensus map at 3.2 Å; both purified.

Experiment [2] deals with T2, DmCcz1-fl (residues 1 to 485) (Drosophila melanogaster) (UniProt Q9VZL5).
T2 sequence: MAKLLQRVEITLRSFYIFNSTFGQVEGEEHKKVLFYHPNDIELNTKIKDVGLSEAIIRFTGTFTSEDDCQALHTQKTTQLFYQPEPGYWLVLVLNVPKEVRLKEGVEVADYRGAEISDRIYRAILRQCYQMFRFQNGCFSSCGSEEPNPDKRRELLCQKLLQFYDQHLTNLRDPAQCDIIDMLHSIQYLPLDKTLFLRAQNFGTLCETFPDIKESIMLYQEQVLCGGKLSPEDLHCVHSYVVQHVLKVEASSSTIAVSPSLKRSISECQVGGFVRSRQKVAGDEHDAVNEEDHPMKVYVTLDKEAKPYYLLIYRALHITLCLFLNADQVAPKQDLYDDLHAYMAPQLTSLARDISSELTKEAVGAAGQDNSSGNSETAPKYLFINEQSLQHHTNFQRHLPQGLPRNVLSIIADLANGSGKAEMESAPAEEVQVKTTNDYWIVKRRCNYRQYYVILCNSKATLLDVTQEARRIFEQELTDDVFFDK
Described as above.

Experiment [3] concerns the target T3, GST-MC1 complex (GST-Mon1 and 3×Flag-Ccz1) (Drosophila melanogaster) (UniProt Q9VR38+Q9VZL5).
T3 sequence 1: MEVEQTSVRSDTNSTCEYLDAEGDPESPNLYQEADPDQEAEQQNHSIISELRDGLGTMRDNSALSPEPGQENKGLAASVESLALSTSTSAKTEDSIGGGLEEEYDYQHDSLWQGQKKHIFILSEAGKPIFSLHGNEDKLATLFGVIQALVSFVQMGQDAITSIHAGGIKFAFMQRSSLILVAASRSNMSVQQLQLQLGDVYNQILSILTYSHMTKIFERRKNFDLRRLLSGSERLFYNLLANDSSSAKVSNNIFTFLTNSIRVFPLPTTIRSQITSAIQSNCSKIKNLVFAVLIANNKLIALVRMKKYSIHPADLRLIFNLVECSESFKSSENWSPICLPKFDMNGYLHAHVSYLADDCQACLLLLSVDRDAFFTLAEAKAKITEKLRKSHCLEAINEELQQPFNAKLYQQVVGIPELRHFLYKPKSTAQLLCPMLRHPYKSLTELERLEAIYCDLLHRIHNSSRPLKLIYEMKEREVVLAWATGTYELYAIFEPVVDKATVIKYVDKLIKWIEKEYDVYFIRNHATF
T3 sequence 2: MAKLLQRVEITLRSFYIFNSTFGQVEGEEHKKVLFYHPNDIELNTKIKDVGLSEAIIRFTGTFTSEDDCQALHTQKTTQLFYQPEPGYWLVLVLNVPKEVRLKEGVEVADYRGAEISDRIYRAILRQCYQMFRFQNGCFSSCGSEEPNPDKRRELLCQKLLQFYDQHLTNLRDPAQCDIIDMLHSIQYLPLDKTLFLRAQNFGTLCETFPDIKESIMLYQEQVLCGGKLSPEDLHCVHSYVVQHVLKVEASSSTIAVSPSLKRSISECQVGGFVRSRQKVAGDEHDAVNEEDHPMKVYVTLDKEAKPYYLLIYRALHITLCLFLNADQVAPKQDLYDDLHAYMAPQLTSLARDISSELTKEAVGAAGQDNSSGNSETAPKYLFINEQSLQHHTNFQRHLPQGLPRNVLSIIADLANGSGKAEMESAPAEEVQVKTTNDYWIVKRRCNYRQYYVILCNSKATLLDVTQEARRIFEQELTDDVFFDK
As to the kind of experiment: pull-down; purified GST-Mon1/3×Flag-Ccz1 immobilised on GSH agarose, incubated with 3×Flag-GFP-Bulli expressed in HEK293T cells; SDS-PAGE and western blotting; only the target purified.

These are yes or no findings as the source states them, for the method shown. For some of these results: Binding seen in cells or lysates may run through a third protein. Some results given as binding are weak or reduced against the parent protein; the word gives no strength. For some of these results: Where a sequence is shown, tags or fusion partners need not be part of it.

B1: DmBulli-fl (residues 1 to 642) (protein, UniProt Q9VRX1 1-642)
chain: MDNSNGIHYIELTPNPIRFDAVSQLTNVFFDDSNKQIFAVRSGGATGVVVKGPGSPDDVVISFCMSDRGGAIRSIKFSPDNQILAVQRKENSVEFICFQGDQPLLQDIITHQVKTLIHGFVWVHNREVALISNTGVEVYTVVPEKRQVRSVKSLSIGIKWFAWCCDANVALLCTSEGNSLIPVLVKQKVITKLPKVDLGNPSRDVQESKVTLGQVYGVLAVLILQSNSTTGLMEVEVHLLNGPGLAPRKCHVLRLSLLGRFAINTVDNLIVVHHQASGTSLLFDISLPGEVINEITYHTPITPGRSIKPFGLKLPSLSPDGQILQCELYSTHWVLFQPNIVIDAKLGCMWFLNLCIEPLCQLISDRIRLTEFLLQRSNGKQMLLKVIGQLVDDQYKGTLLPVLETIFSRINKIYASWVQLELQNQTAQPSNVKTTTLKQSTPPIVLIEQLDMVQIFQRIARRPYTESILMLYLQSLNKFNIAAQEELSKMIISELISNRSFDTLRRLVSYSMLLESKSVACFLLSHSNVDTAISQVAIDMLGRIEAHEIIIEVMLGQGKVIDALRLAKNSMGLEKVPARKFLEAAHKTKDDLIFHSVYRFFQMRNLKLYETLSFPKAEQCTEFIQHYNNTFPADNPTRQPVS
In the case of B1, the binding entry in experiment [1] and in experiment [2] was “binds” each time.

B2: 3×Flag-GFP-Bulli wild type (protein, UniProt Q9VRX1 1-642)
chain: MDNSNGIHYIELTPNPIRFDAVSQLTNVFFDDSNKQIFAVRSGGATGVVVKGPGSPDDVVISFCMSDRGGAIRSIKFSPDNQILAVQRKENSVEFICFQGDQPLLQDIITHQVKTLIHGFVWVHNREVALISNTGVEVYTVVPEKRQVRSVKSLSIGIKWFAWCCDANVALLCTSEGNSLIPVLVKQKVITKLPKVDLGNPSRDVQESKVTLGQVYGVLAVLILQSNSTTGLMEVEVHLLNGPGLAPRKCHVLRLSLLGRFAINTVDNLIVVHHQASGTSLLFDISLPGEVINEITYHTPITPGRSIKPFGLKLPSLSPDGQILQCELYSTHWVLFQPNIVIDAKLGCMWFLNLCIEPLCQLISDRIRLTEFLLQRSNGKQMLLKVIGQLVDDQYKGTLLPVLETIFSRINKIYASWVQLELQNQTAQPSNVKTTTLKQSTPPIVLIEQLDMVQIFQRIARRPYTESILMLYLQSLNKFNIAAQEELSKMIISELISNRSFDTLRRLVSYSMLLESKSVACFLLSHSNVDTAISQVAIDMLGRIEAHEIIIEVMLGQGKVIDALRLAKNSMGLEKVPARKFLEAAHKTKDDLIFHSVYRFFQMRNLKLYETLSFPKAEQCTEFIQHYNNTFPADNPTRQPVS
B2: in experiment [3], the binding result was “binds”.

B3: DmCcz1-fl (residues 1 to 485) (protein, UniProt Q9VZL5 1-485)
chain: MAKLLQRVEITLRSFYIFNSTFGQVEGEEHKKVLFYHPNDIELNTKIKDVGLSEAIIRFTGTFTSEDDCQALHTQKTTQLFYQPEPGYWLVLVLNVPKEVRLKEGVEVADYRGAEISDRIYRAILRQCYQMFRFQNGCFSSCGSEEPNPDKRRELLCQKLLQFYDQHLTNLRDPAQCDIIDMLHSIQYLPLDKTLFLRAQNFGTLCETFPDIKESIMLYQEQVLCGGKLSPEDLHCVHSYVVQHVLKVEASSSTIAVSPSLKRSISECQVGGFVRSRQKVAGDEHDAVNEEDHPMKVYVTLDKEAKPYYLLIYRALHITLCLFLNADQVAPKQDLYDDLHAYMAPQLTSLARDISSELTKEAVGAAGQDNSSGNSETAPKYLFINEQSLQHHTNFQRHLPQGLPRNVLSIIADLANGSGKAEMESAPAEEVQVKTTNDYWIVKRRCNYRQYYVILCNSKATLLDVTQEARRIFEQELTDDVFFDK
B3: the binding entry in experiment [1] is reported as “binds”.
